Source: US5410052A, “Symmetrical and unsymmetrical polyalkylamine metal complexes for ligand extraction and generation” (The Regents of the University of California, priority 1990, dated 1995)

How the values were obtained:
[1] = Demonstration unit results for cobalt carrier compounds; details: cobalt complex
Description: These components together form a sealed system containing a fixed volume of ligand carrier and carrier fluid. The apparatus shown in FIG. 9 is generally of a type generally intended for relatively larger scale production of oxygen. The electrochemical cell comprises twenty parallel TEFLON® (polytetrafluoroethylene, a trademark of the DuPont Company, Wilmington, Del.) plates having sputtered gold surfaces, between which the carrier fluid id directed, in parallel. The plates are 3 mm thick and spaced at a distance of 1 mm. An individual place is 62.5 cm long and 8 cm wide. When stacked in a parallel plate arrangement, the twenty layers have a total height of 8 cm. The use of a bipolar cell such as this enables the use of higher voltages at proportionately small currents than would be required to operate a single anode, single cathode cell of the same surface area. The electrochemical cell is connected to a voltage supply capable of providing 20 amps at 0.1 volt. The unloading station comprises one or more (one is shown) hollow fiber cartridges 1 inch in diameter and 43 inches in length containing hollow fibers which consist of porous polysulfone with an interior silicon rubber skin. The surface area of the hollow fibers is 0.25 m^2. When more than one such cartridge is used, they are arranged for parallel flow to a commensurate fraction of the total carrier fluid flow through the apparatus. Polyvinylchloride or polypropylene piping is used to connect various inlet and outlet ports. The outlet port of the first electrode compartment is connected to the inlet port of the small of the two hollow fiber cartridges so that the fluid which exists from the first electrode compartment enters the interior or the hollow fibers. This outlet port of the hollow fiber cartridge is connected to the inlet port of the second electrode compartment. The inlet port of the first electrode compartment is connected to the outlet port of the ligand extracting station while the outlet port of the second electrode compartment is connected through a pump to the inlet port of the ligand extracting station. In the embodiment shown, the ligand extracting station comprises one or more (one is shown) hollow fiber cartridges 3 inches in diameter and 43 inches in length, arranged for simultaneous parallel flow through the cartridges when more than one is used. Each cartridge contains 660 hollow fibers made of porous polysulfone with an interior silicon rubber skin. The hollow fibers have a membrane surface area of 2.5 m^2 and an interior volume of 646 ml. The space surrounding the hollow fibers is in communication with the electrochemical cell, not the interior of the hollow filbers. A fluid containing the ligand which is being extracted passes through the interior of the hollow fibers.
Approximately 1 liter of the carrier fluid is present in the interior volume of the apparatus as described above and the ligand extracting station together. Carrier fluid containing the ligand carrier having a ligand bound thereto passes from the exit port of the ligand extracting station into the inlet port of the first electrode compartment where a redox reaction takes place in order to release the ligand carrier having a ligand bound thereto passes from the exist port of the ligand extracting station into the inlet port of the first electrode compartment where a redox reaction takes place in order to release the ligand from the ligand carrier. Free ligand, carrier fluid, and nonbinding-state ligand carrier pass from the exist port of the first electrode chamber into the ligand unloading station where ligand passes through the walls of the ligand-permeable membrane and is collected. In the particular illustration shown, oxygen passes directly in the space where it is being utilized. It is also possible to pass fluids or chemical reactants over the outside of the hollow fibers. […]

[2] = Coulometry of cobalt PAA carrier compounds (oxygen release); details: cobalt complex; for % O2 max: at the minimum voltage Vmin
Description: Coulometry techniques allow the determination of the relative energetics and rates of oxygen release. For such experiments, solutions similarly to those outlined above for cyclic voltammetry are placed in a three-electrode electrolysis cell equipped with a Clark-type oxygen probe. […] Each oxidizing potential is held constant with respect to a silver-silver chloride reference electrode. The resulting current is integrated over time to yield the amount of carrier compounded oxidized. By employing the same electrode geometry, solution volume, stirring rate, information about the relative rate and amount of oxygen release (the "O2 rate") can be determined, at a particular applied cell voltage. Eapp from the response of the oxygen probe.
The expected amount of oxygen evolved is given one-half the total integrated charge through the cell divided by F=96,484 C/mole, since theoretically, two electrons are required to oxidize the two cobalt ions and release one oxygen molecule. The ratio of this figure to the actual amount of oxygen produced is "% O2 max", at the minimum voltage, Vmin, required to produce oxygen. In additional, the "voltage window" the difference between the anodic oxygen evolution and cathodic reduction potentials is measured.
A typical cyclic voltammetry trace, for the oxygenated Co(II) complex of PAA No. 72 using a glassy carbon electrode, is shown in FIG. 6. Coulometry data for several cobalt carrier compounds is summarized in Table V. The couliometric data reported on the average of three to five experiments. The standard deviations for O2 rate were +/=0.36 microliters per minute.

[3] = Electrochemical oxygen cell (EOC) results for cobalt carrier compounds; details: cobalt complex
Description: One apparatus for bench-scale or laboratory-scale evaluation of particular carrier compounds for use in practicing the methods according to the invention is illustrated schematically in FIG. 8. The electrochemical oxygen cell (EOC), designated 20, includes generally an oxygen loader 22, an electrochemical cell 24 having an anode compartment 26 and a cathode compartment 28 separated by an ion-permeable membrane 30, and an unloader 32. Carrier fluid is circulated through loader 22, anode compartment 26, unloader 32, cathode compartment 28 and back to loader 22 using the pump 34 with appropriate plastic or glass conduit.
The carrier fluids suitable for use in, for example, electrochemical oxygen cell 20 comprise a carrier compound in a concentration between about 1 mM and 500 mM, usually between about 10 mM and 300 mM, usually between about 50 mM and about 200 mM. Carrier fluids comprising carrier compounds according to the present invention are preferably aqueous and include additional an electrolyte, e.g., sodium chloride, potassium chloride, sodium nitrate, potassium sulfate, at a concentration of between about 0.1M (moles/liter) and about 1.0M usually about 0.5M. The carrier fluids may be titrated or buffered to the desired pH. Buffer salts such as sodium borate, potassium phosphate, sodium phosphate, etc., may be used depending upon the pH desired, the availability of particular salts, and compatibility of particular buffer salts with particular carrier compounds. The buffer salts(s) are generally present in concentrations of between 10 mM and about 0.5M, usually between 50 mM and 100 mM.
Loader 22 is, for example a microporous hydrophobic hollow fiber membrane array such as that which will be described more fully below in connection with FIG. 9. Suitable membrane arrays are manufactured by Bard Cardiosurgery. Inc. of Concord, Calif. These membrane arrays are typically modified to allow fluid flow both inside and outside the hollow fibers in a manner that will be apparent to those skilled in the art.
Cell 24 includes a pair of titanium current collector plates 36, 38, which press against two electrodes 40, 42. Typically, electrodes 40, 42 are carbon felt electrodes, in one example of the cell 24 having dimensions of about 25 cm×10 cm.×0.5 cm. Electrodes 40, 42, and thus anode compartment 26 is cathode compartment 28, are separated by membrane 30 which is an ion-permeable membrane made, for example, of Nafion (sold by DuPont). Cell 24 is assembled in a plexiglass housing (not separately shown) having two halves which are bolted together and sealed with an O-ring or gasket seal (not shown). Cell 24 includes the necessary ports for introducing and removing carrier fluids from anode compartment 26 cathode compartment 28. Cell 24 further includes ports for insertion of reference electrodes 44, 46 which are conveniently, but not necessarily silver-silver chloride reference electrodes. Current collector plates 36, 38 are connected via titanium posts 48, 50 to a potentiostat (not shown) capable of supplying either a constant or a variable current or voltable to cell 24. Suitable potentiostats are available for example, from Princeton Applied Research, Princeton, N.J. Unloader 32, in the embodiment shown in FIG. 8 includes a cylindrical fluid gas separation chamber 52, equipped with a nitrogen sweep gas bubbler 54 near the bottom thereof and an exit port at the top thereof. Alternatively, unloader 32 may be a hollow fiber device such as that described above in connection with loader 22.
In operation, carrier fluid is circulated through loader 22 where it is exposed, through the ligand-permeable membrane, to the fluid from which oxygen is to be extracted. In the typical laboratory-scale electrochemical oxygen cell 20, carrier fluid of oxygenated using air as the external fluid. […]

[4] = 52.5 mM PAA, 1200 mL/min, pH 10.15, 16 V (ten cell stock)
[5] = 110 mM PAA, 4000 mL/min, pH 8.3, 16 V (ten cell stock)
[6] = 10 mM PAA, 30 mL/min, pH 6, 1.6 V
[7] = 110 mM PAA, 50 mL/min, pH 6, 1.6 V
[8] = 10 mM PAA, 30 mL/min, pH 6.7, 0.9 V
[9] = 10 mM PAA, 30 mL/min, pH 6.7, 1.6 V
[10] = 100 mM PAA, 120 mL/min, pH 7, 0.6 V
[11] = 200 mM PAA, 45 mL/min, pH 7, 0.6 V
[12] = 50 mM PAA, 60 mL/min, pH 7, 0.6 V
[13] = 100 mM PAA, 50 mL/min, pH 7, 0.6 V

For `NCCNCCNCCNCCN` [compound 33], the “EC O2 (electrochemical oxygen production rate)” value (from here on “EC O2”) [1, 4] was 58.7 mL/min, the Power consumed [1, 4] was 250 W/L/min and the “EC O2” value [1, 5] was 87.5 mL/min. For the same molecule, the Power consumed [1, 5] was 808 W/L/min, the “O2 Rate” value ([2]; EApp 0.55 V) was 3.5 ± 0.1 µL/min and the “% O2 max” value [2] was 50%. The “EC O2” value [3, 6] was 0.284 mL/min, the Power consumed [3, 6] was 839 W/L/min and the “e-/O2 (electrons passed per molecule of O2 produced)” value [3, 6] was 7.3. For the same molecule, the “EC O2” value [3, 7] was 2.0 mL/min, the Power consumed [3, 7] was 259 W/L/min and the “e-/O2 (electrons passed per molecule of O2 produced)” value [3, 7] was 2.3.
With `c1ccc(CNCCCNCCNCc2ccccn2)nc1` [compound 72] the “O2 Rate” value ([2]; EApp 0.75 V) was 2.3 ± 0.5 µL/min, the “EC O2” value [3, 8] was 0.091 mL/min and the Power consumed [3, 8] was 400 W/L/min. For the same molecule, the “e-/O2 (electrons passed per molecule of O2 produced)” value [3, 8] was 6.23, the “EC O2” value [3, 9] was 0.548 mL/min and the Power consumed [3, 9] was 556 W/L/min. For the same molecule, the “e-/O2 (electrons passed per molecule of O2 produced)” value [3, 9] was 4.8.
With `c1c[nH]c(CNCCCNCCCNCc2ncc[nH]2)n1` [compound 73] the “O2 Rate” value ([2]; EApp 0.70 V) was 0.7 ± 0.2 µL/min and the “% O2 max” value [2] was 31%.
In the case of `c1nc(CNCCCNCCCNCc2c[nH]cn2)c[nH]1` [compound 74], the “O2 Rate” value ([2]; EApp 0.70 V) is reported as 1.5 ± 0.3 µL/min.
With `c1nc(CNCCNCCNCc2c[nH]cn2)c[nH]1` [compound 75] the “O2 Rate” value ([2]; EApp 0.70 V) was 1.5 ± 0.4 µL/min and the “% O2 max” value [2] was 28%.
In the case of `c1ccc(CNCCCCNCCCNCc2ccccn2)nc1` [compound 78], the “O2 Rate” value ([2]; EApp 0.50 V) is reported as 0.8 ± 0.2 µL/min and the “% O2 max” value [2] is reported as 16%.
In the case of `c1ccc(Cn2ccnc2CNCCCNCCCNCc2nccn2Cc2ccccc2)cc1` [compound 118], the “O2 Rate” value ([2]; EApp 0.80 V) is reported as 1.6 ± 0.2 µL/min and the “% O2 max” value [2] is reported as 20%.
For `c1nc(CNCCCNCCNCc2c[nH]cn2)c[nH]1` [compound 119], the “O2 Rate” value ([2]; EApp 0.65 V) was 1.4 ± 0.3 µL/min.
In the case of `c1ccc(Cn2ccnc2CNCCCNCCNCc2nccn2Cc2ccccc2)cc1` [compound 121], the “O2 Rate” value ([2]; EApp 0.75 V) is reported as 1.4 ± 0.2 µL/min and the “% O2 max” value [2] is reported as 28%.
For `Cn1ccnc1CNCCCNCCNCc1nccn1C` [compound 133], the “EC O2” value [3, 10] was 0.60 mL/min, the Power consumed [3, 10] was 102 W/L/min and the “e-/O2 (electrons passed per molecule of O2 produced)” value [3, 10] was 3.0.
For `c1nc(CNCCCCNCCNCc2c[nH]cn2)c[nH]1` [compound 180], the “O2 Rate” value ([2]; EApp 0.60 V) was 4.1 ± 0.5 µL/min and the “% O2 max” value [2] was 52%.
With `Cn1ccnc1CNCCCNCCCNCc1nccn1C` [compound 189] the “O2 Rate” value ([2]; EApp 0.70 V) was 0.7 ± 0.4 µL/min, the “EC O2” value [3, 11] was 1.80 mL/min and the Power consumed [3, 11] was 142 W/L/min. For the same molecule, the “e-/O2 (electrons passed per molecule of O2 produced)” value [3, 11] was 4.3.
In the case of `c1c[nH]c(CNCCCCNCCNCc2ncc[nH]2)n1` [compound 190], the “O2 Rate” value ([2]; EApp 0.70 V) is reported as 1.4 ± 1.2 µL/min.
For `Cc1[nH]cnc1CNCCCCNCCNCc1nc[nH]c1C` [compound 191], the “O2 Rate” value ([2]; EApp 0.60 V) was 5.8 ± 0.8 µL/min and the “% O2 max” value [2] was 49%.
For `Cn1ccnc1CNCCCCNCCNCc1nccn1C` [compound 192], the “O2 Rate” value ([2]; EApp 0.70 V) was 7.7 ± 1.1 µL/min, the “EC O2” value [3, 12] was 1.90 mL/min and the Power consumed [3, 12] was 71 W/L/min. For the same molecule, the “e-/O2 (electrons passed per molecule of O2 produced)” value [3, 12] was 2.1, the “EC O2” value [3, 13] was 1.20 mL/min and the Power consumed [3, 13] was 66 W/L/min. The “e-/O2 (electrons passed per molecule of O2 produced)” value [3, 13] was 2.0.
